For this data set, the system named is XbaI restriction endonuclease. As to the kind of experiment: enzyme reaction in vitro. As to conditions: joint molecules with TFOØ-S+R (no triplex) are cleaved; purified recombinant protein; only the site is given.

Construct, isoform or probe ends are uncertain for at least one entry.

Results on one sequence are retold here after US20030003547.

Take “CGTCTAGAAAAGAAAAGGGGGGATACGC (double strand) [Y0Gorec plasmid triplex target (XbaI site overlapping)]”: the “activity on this sequence” value is listed as “active”.
